Measured values taken from US20090270490A1, “METHODS INVOLVING ALDOSE REDUCTASE INHIBITION” (THE BOARD OF REGENTS OF THE UNIVERSITY OF TEXAS SYSTEM, priority 2008, published 2009).
Some entries share one result that the patent states for a list of compounds.

Test system: NF-κB DNA binding
Assay: Electrophoretic mobility shift assay (EMSA) of NF-κB in HLEC
Format: cell-based, human
Details: inhibitor 20 μM, b-FGF 50 ng/ml 1 h
Description: Adenovirus SV-40 viral DNA-transformed human lens epithelial cells (HLE-B3; HLEC) were purchased from ATCC. Cells were maintained in DMEM supplemented with 20% heat-inactivated FBS, and 50 μg/ml gentamicin. The cells were grown in a humidified incubator at 37° C. and 5% CO2. The HLEC were pretreated with 20 μM of AR inhibitors sorbinil or zopolrestat for overnight in medium containing 0.5% FBS followed by stimulation with various concentrations (0-100 ng/mL) of b-FGF for 24 h and cell viability and expression of α-SMA, β-crystallin and ICAM-1 was quantified. To investigate the effect of b-FGF on NF-κB and MAPK activation, HLEC were starved in medium containing 0.5% FBS with or without AR inhibitors for overnight. The cells were washed with serum-free medium followed by incubation in serum-free medium without or with AR inhibitor containing 50 ng/mL b-FGF for different time intervals.
The HLEC in 150 cm^2 culture flasks were pretreated without or with AR inhibitors for 24 h in serum-free medium, followed by treatment with b-FGF (50 ng/ml) for 1 h at 37° C. The nuclear extracts were prepared as described earlier (Ramana et al., 2003). The Consensus oligonucleotides for NF-κB transcription factors were 5′-end labeled using T4 polynucleotide kinase. EMSA was performed as described earlier (Ramana et al., 2003.). […]

Row | SMILES | prevention of b-FGF-induced NF-κB DNA binding capacity
1 | O=C1NC(=O)[C@@]2(CCOc3ccc(F)cc32)N1 [sorbinil, (S)-6-fluoro-2,3-dihydrospiro[4H-1-benzopyran-4,4′-imidazolidine]-2′,5′-dione] | > 90%
2 | O=C(O)Cc1nn(Cc2nc3cc(C(F)(F)F)ccc3s2)c(=O)c2ccccc12 [zopolrestat] | > 90%
